Experimental data: PubChem BioAssay AID493246 (Drosophila RNAi Screening Center, 2011)
The deposit covers about 21,000 reagents; this is an unselected part of those with a known target gene and a result. In the full data, 429 (2%) are marked active. 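Values are raw and not normalised between plates; calls rest on per-plate z-scores that were not deposited.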 A number with no mark means an inactive call. The numbers tell different reagents against one gene apart. A plus sign joins genes that one reagent is predicted to hit. Not stated in the record: the amount of reagent, the time to read-out.

Screen: 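Genes fly cells need to grow and stay alive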 (primary screen)
Cells: Drosophila Kc and S2R+ cells
Knock-down reagent: long dsRNA against Drosophila genes
Read-out: 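Cell number per well after knock-down, printed as raw plate values; calls were based on per-plate z-scores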
Reading the numbers: Kc cell number and S2R+ cell number: higher = more cells remaining
Hit rule: 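Counted as a hit if cell number falls by a z-score of at least 3 within its plate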

How did the screen score CG4456 + Hsp22 #1?
Kc cell number, rep 1: 1.44e6; Kc cell number, rep 2: 1.48e6; S2R+ cell number, rep 1: 1.20e6; S2R+ cell number, rep 2: 1.30e6

With CG4456 + Hsp22 #2, what does the deposit list?
Kc cell number, rep 1: 1.53e6; Kc cell number, rep 2: 1.45e6; S2R+ cell number, rep 1: 1.23e6; S2R+ cell number, rep 2: 1.21e6

With CG9522, what does the deposit list?
Kc cell number, rep 1: 1.52e6; Kc cell number, rep 2: 1.51e6; S2R+ cell number, rep 1: 1.05e6; S2R+ cell number, rep 2: 1.14e6

For CG31778, what was measured?
Kc cell number, rep 1: 1.37e6; Kc cell number, rep 2: 1.47e6; S2R+ cell number, rep 1: 1.21e6; S2R+ cell number, rep 2: 1.18e6

With nyo #1, what was measured?
Kc cell number, rep 1: 1.65e6; Kc cell number, rep 2: 1.64e6; S2R+ cell number, rep 1: 1.09e6; S2R+ cell number, rep 2: 1.16e6

For nyo #2, how do the results read?
Kc cell number, rep 1: 1.62e6; Kc cell number, rep 2: 1.69e6; S2R+ cell number, rep 1: 9.53e5; S2R+ cell number, rep 2: 1.03e6

With CG10651, how do the results read?
Kc cell number, rep 1: 1.47e6; Kc cell number, rep 2: 1.56e6; S2R+ cell number, rep 1: 1.31e6; S2R+ cell number, rep 2: 3.36e5

With CG15403, how do the results read?
Kc cell number, rep 1: 1.55e6; Kc cell number, rep 2: 1.52e6; S2R+ cell number, rep 1: 1.09e6; S2R+ cell number, rep 2: 1.28e6

For GckIII, what was measured?
Kc cell number, rep 1: 1.19e6; Kc cell number, rep 2: 1.17e6; S2R+ cell number, rep 1: 9.33e5; S2R+ cell number, rep 2: 1.04e6

What did the screen give for Antp?
Kc cell number, rep 1: 1.49e6; Kc cell number, rep 2: 1.59e6; S2R+ cell number, rep 1: 9.76e5; S2R+ cell number, rep 2: 1.03e6

For wus, what does the deposit list?
Kc cell number, rep 1: 1.47e6; Kc cell number, rep 2: 1.53e6; S2R+ cell number, rep 1: 1.04e6; S2R+ cell number, rep 2: 1.23e6

Reformatted: results already given.
target,reagent no.,"Kc cell number, rep 1","Kc cell number, rep 2","S2R+ cell number, rep 1","S2R+ cell number, rep 2"
CG31778,1,1.37e6,1.47e6,1.21e6,1.18e6
nyo,1,1.65e6,1.64e6,1.09e6,1.16e6

Next reagents follow:
How did the screen score Phm?
Kc cell number, rep 1: 1.48e6; Kc cell number, rep 2: 1.54e6; S2R+ cell number, rep 1: 1.16e6; S2R+ cell number, rep 2: 1.13e6

How did the screen score CG14627?
Kc cell number, rep 1: 1.47e6; Kc cell number, rep 2: 1.49e6; S2R+ cell number, rep 1: 1.08e6; S2R+ cell number, rep 2: 1.18e6

What is on record for Argp?
Kc cell number, rep 1: 1.16e6; Kc cell number, rep 2: 1.22e6; S2R+ cell number, rep 1: 1.19e6; S2R+ cell number, rep 2: 1.32e6

What is on record for Eo?
Kc cell number, rep 1: 1.80e6; Kc cell number, rep 2: 1.84e6; S2R+ cell number, rep 1: 1.12e6; S2R+ cell number, rep 2: 1.30e6

Which result is listed for IleRS-m?
Kc cell number, rep 1: 1.25e6; Kc cell number, rep 2: 1.41e6; S2R+ cell number, rep 1: 1.26e6; S2R+ cell number, rep 2: 1.34e6

What is on record for Cyp313a4?
Kc cell number, rep 1: 1.59e6; Kc cell number, rep 2: 1.64e6; S2R+ cell number, rep 1: 1.32e6; S2R+ cell number, rep 2: 1.38e6

Which result is listed for PolE2?
Kc cell number, rep 1: 1.34e6; Kc cell number, rep 2: 1.44e6; S2R+ cell number, rep 1: 1.18e6; S2R+ cell number, rep 2: 1.10e6

What is on record for CG3408?
Kc cell number, rep 1: 1.28e6; Kc cell number, rep 2: 1.34e6; S2R+ cell number, rep 1: 1.23e6; S2R+ cell number, rep 2: 1.33e6

For RhoGAP5A, what was measured?
Kc cell number, rep 1: 6.30e5; S2R+ cell number, rep 1: 8.50e5

For CG9632, what was measured?
Kc cell number, rep 1: 1.40e6; Kc cell number, rep 2: 1.41e6; S2R+ cell number, rep 1: 1.07e6; S2R+ cell number, rep 2: 1.18e6

For PolD2, what does the deposit list?
Kc cell number, rep 1: 1.29e6; Kc cell number, rep 2: 1.36e6; S2R+ cell number, rep 1: 1.17e6; S2R+ cell number, rep 2: 1.22e6

What is on record for Spn38F?
Kc cell number, rep 1: 1.72e6; Kc cell number, rep 2: 1.80e6; S2R+ cell number, rep 1: 1.27e6; S2R+ cell number, rep 2: 2.75e5

With Mip, what was measured?
Kc cell number, rep 1: 1.36e6; Kc cell number, rep 2: 1.45e6; S2R+ cell number, rep 1: 1.06e6; S2R+ cell number, rep 2: 1.14e6

For CG40198, how do the results read?
Kc cell number, rep 1: 1.55e6; Kc cell number, rep 2: 1.69e6; S2R+ cell number, rep 1: 1.03e6; S2R+ cell number, rep 2: 1.17e6

What is on record for Pp2B-14D?
Kc cell number, rep 1: 1.43e6; Kc cell number, rep 2: 1.43e6; S2R+ cell number, rep 1: 9.20e5; S2R+ cell number, rep 2: 1.01e6

For Dred, how do the results read?
Kc cell number, rep 1: 1.31e6; Kc cell number, rep 2: 1.59e6; S2R+ cell number, rep 1: 1.25e6; S2R+ cell number, rep 2: 1.35e6
